Measurements published in PubChem BioAssay AID540256 (National Center for Advancing Translational Sciences (NCATS), 2011).
Screen size: about 300,000 compounds; about 3,700 (1.2%) were called active. The inconclusive results got no clear call from the source; some entries with a clear call stand among them for comparison. The call rests on the fitted dose curve; tested in HEK293 cells. A potency beside an inconclusive call is a rough fit, not a confirmed value.

Test: qHTS for Inhibitors of binding or entry into cells for Lassa Virus; further: nearly all actives have a fitted effect of over 50% in size
Details: Lassa virus pseudotype entry inhibition, cell reporter; activity change, negative = inhibition: at 37.9 µM (top of the series) unless noted
On the % scale 0 is the no-effect control and ±100 the full control effect; potency means the concentration at half of the fitted maximal effect.

Q: Which “activity change, negative = inhibition” value does the source give for O=C(CNc1ccc2c(c1)OCO2)N/N=C\c1ccccc1Cl here?
A: inactive: 11%

Q: With C/C1=C\CCC2C(/C=C(\C)CC1)OC(=O)C2CN1CCCCC1 (stereo not given) as the compound, how does the Potency read?
A: inconclusive: 3.16 µM [inhibitor, partial curve, poor fit]

Q: With CCCn1c(C)nc2c(c1=O)c1nc3ccccc3nc1n2CCC1=CCCCC1 as the compound, how does the Potency read?
A: inconclusive: 18.3 µM [inhibitor, single point]

Q: With CC(C)c1ccc(OCC(=O)Nc2cccc3c2CCCC3)cc1 as the compound, how does the Potency read?
A: inconclusive: 12.6 µM [inhibitor, partial curve, poor fit]

Q: Which Potency does the source give for O=C(N/N=C/c1ccc(F)cc1)c1sccc1OCc1ccc(F)cc1 here?
A: inconclusive: 1.41 µM [inhibitor, full curve, poor fit]

Q: For CCOc1ccccc1CNc1nc2nc(C)cc(C)n2n1, which “activity change, negative = inhibition” value is on record?
A: inactive: 2.76% [at 46.1 µM]

Q: Which Potency does the source give for O=C(NCC(=O)N1CCN(c2ncccn2)CC1)c1cccs1 here?
A: inconclusive: 20.6 µM [activator, single point]

Q: For Nn1c(SCC(=O)Nc2ccc(N3CCOCC3)cc2)nnc1-c1ccccc1F, which “activity change, negative = inhibition” value is on record?
A: inactive: 13.7%

Q: With Cc1ccc(C(=O)NCCc2cc3ccc(C)c(C)c3[nH]c2=O)cc1[N+](=O)[O-] as the compound, how does the “activity change, negative = inhibition” value read?
A: inactive: -2.81%

Q: Which Potency does the source give for O=c1c2c3c(sc2nc2n1CCCS2)CCCC3 here?
A: inconclusive: 5.17 µM [activator, partial curve, poor fit]

Q: For Cc1ccc(N(C(=O)CCCC(=O)Nc2ccccn2)C(C(=O)NC2CCCC2)c2ccc(O)cc2)cc1C (stereo not given), which Potency is on record?
A: inconclusive: 1.78 µM [inhibitor, full curve, poor fit]

Q: Which “activity change, negative = inhibition” value does the source give for Oc1ccccc1C1=Nc2ncnn2C(c2ccc(F)cc2)C1 (stereo not given) here?
A: inactive: -5.56%

Q: Which Potency does the source give for CCn1cc2nc(SCC(=O)Nc3ccccc3C(F)(F)F)n(Cc3ccc(C)cc3)c(=O)c2n1 here?
A: inconclusive: 35.5 µM [inhibitor, single point]

Q: With NNc1ncnc2c1cnn2-c1ccccc1 as the compound, how does the Potency read?
A: inconclusive: 12.6 µM [inhibitor, partial curve]

Q: Which Potency does the source give for Cc1cc(NC(=O)NC2(C(F)(F)F)Oc3ccc(Cl)cc3O2)no1 (stereo not given) here?
A: inconclusive: 7.3 µM [inhibitor, partial curve]

Q: Which “activity change, negative = inhibition” value does the source give for CC(C)(C)OC(=O)N1CCCC1C(=O)N1CCCC1C(=O)N1CCCC1C(=O)O (stereo not given) here?
A: inactive: 23.2%

Q: Which “activity change, negative = inhibition” value does the source give for Cc1cccc(NC(=O)CSc2nnc(NC(=O)CN3CCCCC3)s2)c1 here?
A: inactive: -4.04%

Q: With Cc1ccccc1C(=O)n1nc(-c2cccnc2)nc1NCc1ccccc1 as the compound, how does the “activity change, negative = inhibition” value read?
A: inactive: 14.3% [at 46.1 µM]

Q: With O=C(NC(Cc1c[nH]c2ccccc12)C(=O)N/N=C/c1cccc2ccccc12)c1cccs1 (stereo not given) as the compound, how does the Potency read?
A: inconclusive: 16.4 µM [inhibitor, single point]

Q: For COc1ccc(C2CC(=O)c3cc(-c4nc(-c5ccc(Cl)cc5)cs4)c(=O)[nH]c3C2)cc1OC (stereo not given), which “activity change, negative = inhibition” value is on record?
A: inactive: -3.47% [at 46.1 µM]
